Source: the supplement of paper PMC7877785
± gives the uncertainty stated by the source. The uncertainty is large for many entries.

Assay: self-splicing fitness, log relative to wild type (ln ratio); higher = more splicing; Tetrahymena group I intron in knt gene, E. coli kanamycin selection, DiMSum; sequences stand for … in CUCUCU…GGAGGGAAAAGUUAUCAGGCAUGCACCUGGUAGCUAGUCUUUAAACCAAUAGAUUGCAUCGGUUUAAAAGGCAAGACCGUCAAAUUGCGGGAAAGGGGUCAACAGCCGUUCAGUACCAAGUCUCAGGGGAAACUUUGAGAUGGCCUUGCAAAGGGUAUGGUAAUAAGCUGACGGACAUGGUCCUAACCACGCAGCCAAGUCCUAAGUCAACAGAUCUUCUGUUGAUAUGGAUGCAGUUCACAGACUAAAUGUCGGUCGGGGAAGAUGUAUUCUUCUCAUAAGAUAUAGUCGGACCUCUCCUUAAUGGGAGCUAGCGGAUGAAGUGAUGCAACACUGGAGCCGCUGGGAACUAAUUUGUAUGCGAAAGUAUAUUGAUUAGUUUUGGAGUACUCGUGGUCG
Outline: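 Fitness was computed with DiMSum as the error-weighted combination of replicate fold changes, kanamycin versus none, each normalised to wild type. The library randomised all eight intron nucleotides of the P1ex region, with the intron placed in the knt kanamycin-resistance gene on pET-22b(+) in E. coli BL21(DE3). Six replicate transformations were grown overnight at 37°C or 30°C on LB agar with or without 25 μg/mL kanamycin, plus 100 μg/mL carbenicillin, 50 μM IPTG and 0.2% rhamnose. Pooled colonies were amplicon-sequenced on an Illumina HiSeq 2500.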

Sequence | self-splicing fitness (ln) (30 °C) | self-splicing fitness (ln) (37 °C)
AGGGAGCAAUAUUACGAACU | -3.41 ± 0.75 | -2.05 ± 0.78
CUGGAGCAAUAUUACGCCAA | -2.09 ± 1.4 | 
UCCGAGCAAUAUUACGAAUA |  | -3.54 ± 0.59
GAGGAGCAAUAUUACGCCCG | -0.699 ± 0.93 | 
AGCUAGCAAUAUUACGAAUC | -4.7 ± 0.73 | 
UUUGAGCAAUAUUACGAGGA | -3.62 ± 0.28 | -3.55 ± 0.46
UAGGAGCAAUAUUACGCGCC | -3.77 ± 0.53 | 
CGCGAGCAAUAUUACGCCGC | -2.21 ± 1.1 | 
CGGUAGCAAUAUUACGGAAC | -4.39 ± 0.72 | 
UACCAGCAAUAUUACGUACA | -0.719 ± 0.071 | -0.432 ± 0.1
CCUGAGCAAUAUUACGGUAC |  | -3.39 ± 0.52
UUGUAGCAAUAUUACGAUCU | -3.81 ± 0.52 | 
UCGCAGCAAUAUUACGAUAC | -3.52 ± 0.46 | -2.76 ± 0.34
AGUAAGCAAUAUUACGACCC | -1.01 ± 0.47 | -0.157 ± 0.35
UGCGAGCAAUAUUACGUUUC | -4.5 ± 0.59 | -2.62 ± 0.36
CCGGAGCAAUAUUACGCCCG |  | -2.07 ± 1.1
GAGGAGCAAUAUUACGAAAA | -2.42 ± 1.2 | -2.22 ± 0.5
UUAGAGCAAUAUUACGCGGA | -1.29 ± 0.1 | -0.00507 ± 0.11
UCGGAGCAAUAUUACGCCGC |  | -2.76 ± 1.1
UUCUAGCAAUAUUACGUUCC | -3.49 ± 0.61 | -2.8 ± 0.54
UGUGAGCAAUAUUACGUUGC | -3.72 ± 1 | 

Single records (already shown). Values in the order: self-splicing fitness (ln) (30 °C)	self-splicing fitness (ln) (37 °C)
GAGGAGCAAUAUUACGAAAA is entered as -2.42 ± 1.2	-2.22 ± 0.5
UGCGAGCAAUAUUACGUUUC is entered as -4.5 ± 0.59	-2.62 ± 0.36

(further entries)

Sequence | self-splicing fitness (ln) (30 °C) | self-splicing fitness (ln) (37 °C)
CCUGAGCAAUAUUACGUCAC | -3.46 ± 0.61 | -1.54 ± 0.31
GUCAAGCAAUAUUACGAACC |  | -2.49 ± 0.63
UGAGAGCAAUAUUACGCUAC |  | -1.18 ± 0.67
GCUGAGCAAUAUUACGCGAA | -3.53 ± 0.73 | 
UCGGAGCAAUAUUACGCGUC |  | -1.54 ± 1.2
GUUUAGCAAUAUUACGGUUG | -3.13 ± 0.36 | -1.47 ± 0.28
UAAAAGCAAUAUUACGUUUG | -2.22 ± 0.1 | -0.909 ± 0.11
GAUCAGCAAUAUUACGGGGA | -1.61 ± 0.12 | -0.776 ± 0.12
CGGAAGCAAUAUUACGAUGC | -4.74 ± 0.73 | 
UUGCAGCAAUAUUACGUUCC | -3.85 ± 0.53 | 
GGAUAGCAAUAUUACGUAUC | -2.62 ± 1.1 | -1.91 ± 0.51
UGGUAGCAAUAUUACGAGGG | -4.45 ± 0.59 | 
GAGGAGCAAUAUUACGUUGU | -4.89 ± 0.51 | 
UUAUAGCAAUAUUACGUAGC |  | -2.19 ± 0.78
UUUUAGCAAUAUUACGAAUC | -2.48 ± 0.63 | 
UAUGAGCAAUAUUACGCAUC | -3.27 ± 1.1 | -2.15 ± 0.65
UUGGAGCAAUAUUACGCAUA | -0.86 ± 1 | -0.86 ± 0.56
CGUGAGCAAUAUUACGGAAU | -3.53 ± 0.53 | 
GAGUAGCAAUAUUACGGAUG |  | -2.83 ± 0.53
CACAAGCAAUAUUACGAAAC | -3.83 ± 0.51 | 
UGGGAGCAAUAUUACGUAAC |  | -3.75 ± 0.73

Sequence | self-splicing fitness (ln) (30 °C) | self-splicing fitness (ln) (37 °C)
UCCAAGCAAUAUUACGACUA | -1.2 ± 0.12 | 0.12 ± 0.1
GGUUAGCAAUAUUACGGUCC | -1.77 ± 0.49 | -1.46 ± 0.57
UGCUAGCAAUAUUACGCGGC |  | -2.26 ± 0.56
ACUCAGCAAUAUUACGAAUC | -4.04 ± 0.52 | 
AAGGAGCAAUAUUACGCUCA | -0.0124 ± 0.56 | 
GUCUAGCAAUAUUACGAUCU | -1.57 ± 0.12 | -0.315 ± 0.14
CCGUAGCAAUAUUACGAGAC |  | -1.69 ± 1.2
AGUGAGCAAUAUUACGCAGA | -2.73 ± 0.76 | 
AGAGAGCAAUAUUACGAGCC | -2.04 ± 0.57 | 
GUCAAGCAAUAUUACGCGGC | -4.89 ± 0.71 | -4.61 ± 1
GGCCAGCAAUAUUACGGACC | -3.07 ± 0.53 | -0.7 ± 0.69
AGAGAGCAAUAUUACGGGUG |  | -2.54 ± 0.54
UAUAAGCAAUAUUACGCCGU |  | -1.09 ± 0.7
UCAUAGCAAUAUUACGUCAC | -3.41 ± 0.56 | -1.95 ± 0.81
UGAGAGCAAUAUUACGUUAA | -3.42 ± 0.54 | -2.46 ± 0.3
GUUGAGCAAUAUUACGGAAC |  | -0.44 ± 0.71
ACUUAGCAAUAUUACGACCC |  | 0.52 ± 0.55
UAGGAGCAAUAUUACGAAGU | -4.06 ± 0.59 | 
CAAGAGCAAUAUUACGAACA | -4.3 ± 0.6 | 
